Measurements reported in PubChem BioAssay AID504744 (Drosophila RNAi Screening Center, 2011)
Assay: 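Identify dsRNAs that increase or decrease phospho-dAkt after insulin treatment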 (primary screen). System: Drosophila Kc167 cells. Knock-down reagent: long dsRNA against Drosophila genes, 250 ng dsRNA per well of a 384-well plate. Timing: 3 days of knock-down, then overnight serum-free starvation before stimulation. Conditions: bovine insulin at 387 nM for 10 minutes after 12 h without serum. Measured: 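Per-well phospho-dAkt level from an in-cell fluorescent antibody stain, divided by a DNA-dye signal; log2 residuals turned into z-scores that take cell number into account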. Call rule: 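Hit in the insulin screen when the two-replicate mean z-score is more extreme than plus or minus 2.5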.
In all, the deposit lists about 23,000 reagents; below is an unselected part of those with a known target gene and a result. In the full data, 98 (0.43%) got an active call. 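Only hit calls are given; the phospho-dAkt signals, z-scores and hit direction were not deposited.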 Reagents against one gene are numbered here. Names joined by + are all predicted targets of the reagent.

target gene	reagent	outcome
CG32170	1	inactive
CG14218	1	inactive
ppk10	1	inactive
Pxd	1	inactive
CG12104	1	inactive
CG31900 (retired record)	1	inactive
TwdlH	1	inactive
Spn100A	1	inactive
Der-2	1	inactive
Flo1	1	inactive
CG8635	1	inactive
esn	1	inactive
esn	2	inactive
CG42685	1	inactive
CG11398	1	inactive
MRP	1	inactive
scat	1	inactive
Ir54a + sub	1	inactive
Eaat1	1	inactive
CG15728	1	inactive
CG15728	2	inactive
CG18231	1	inactive
bin	1	inactive
CG32483	1	inactive
Lfg	1	inactive
CG11537	1	inactive
CG16826	1	inactive
CG33768	1	inactive
CG4465	1	inactive
CG5539	1	inactive
CG13039	1	inactive
bap	1	inactive
CG18853	1	inactive
CG12560	1	inactive
CG6006	1	inactive
CG6006	2	inactive
CG5254	1	inactive
CG3594	1	inactive
CG3594	2	inactive
CG43317	1	inactive
CG6126	1	inactive
CG5376	1	inactive
Cnx14D	1	inactive
Cpsf73	1	inactive
PPP4R2r	1	inactive
PPP4R2r	2	inactive
Ctr1C	1	inactive
CG13295	1	inactive
gNacalpha	1	active
Tsp42Ef	1	inactive
CG12491 + CG34105	1	inactive
CG12491 + CG34105	2	inactive
RecQ5	1	inactive
Cyp12d1-d + Cyp12d1-p	1	inactive
Polr2F	1	inactive
Eato	1	inactive
Eato	2	inactive
CG8952	1	inactive
CG31647 (retired record)	1	inactive
Neto	1	inactive
Neto	2	inactive
Neto	3	inactive
Neto	4	inactive
CG1971	1	inactive
Ir67a	1	inactive
Cdep	1	inactive
Cdep	2	inactive
Cdep	3	inactive
CG42271	1	inactive
CG42271	2	inactive
CG13791 (retired record)	1	inactive
APC4	1	inactive
grass	1	inactive
LRP1	1	inactive
CG13227	1	inactive
Gr59f	1	inactive
CG30428	1	inactive
prd1	1	inactive
P32	1	inactive
CG4836	1	inactive
RpLP0-like	1	inactive
CG8564	1	inactive
primo-2 + primo-1	1	inactive
mTerf3	1	inactive
PGRP-SB2	1	inactive
Ir84a	1	inactive
CG6418	1	inactive
CG14926	1	inactive
Unc-115b + p24-2 + Unc-115a	1	inactive
CG11131	1	inactive
CG11131	2	inactive
Cyp313a2	1	inactive
a	1	inactive
a	2	inactive
raskol	1	inactive
raskol	2	inactive
raskol	3	inactive
raskol	4	inactive
raskol	5	inactive
Klp59D	1	inactive
CG4627	1	inactive
CG15629	1	inactive
Ctl1	1	inactive
vih	1	inactive
CG9107	1	inactive
cpb	1	inactive
HtrA2	1	inactive
ogre	1	inactive
Ran	1	inactive
Gr64f	1	inactive
Amph	1	inactive
BG642163	1	inactive
BG642163	2	inactive
kst	1	inactive
Fim	1	inactive
Pa1	1	inactive
CG13390	1	inactive
CG17272	1	inactive
Nhe1	1	inactive
CngB	1	inactive
Cip4	1	inactive
Cip4	2	inactive
Cip4	3	inactive
skl	1	inactive
Scgalpha	1	inactive
Not3	1	inactive
Gr21a	1	inactive
CG17266	1	inactive
CG17266	2	inactive
CG2938	1	inactive
Rlip	1	inactive
CG32795	1	inactive
CG32795	2	inactive
CG16922 (retired record)	1	inactive
Gba1a	1	inactive
CG6026	1	inactive
EAChm	1	inactive
levy	1	inactive
PMP34	1	inactive
CG9825	1	inactive
fd3F + CG42499 (retired record)	1	inactive
fd3F + CG42499 (retired record)	2	inactive
CG3610	1	inactive
CG6974	1	inactive
Best1	1	inactive
Fit1	1	inactive
wkd	1	inactive
CG34429	1	inactive
CG2955	1	inactive
CG2816	1	inactive
dwg	1	inactive
CG14383	1	inactive
rictor	1	active
DhpD	1	inactive
CG31343	1	inactive
CG12523	1	inactive
Tasp1	1	inactive
